{"sequences": {"note": "Protein sequences, listed by entry. Tags and fused reporters are not part of them. Lines headed by an entry give the natural chain unless they say otherwise; changes in a name come on top.", "UniProt P45975": "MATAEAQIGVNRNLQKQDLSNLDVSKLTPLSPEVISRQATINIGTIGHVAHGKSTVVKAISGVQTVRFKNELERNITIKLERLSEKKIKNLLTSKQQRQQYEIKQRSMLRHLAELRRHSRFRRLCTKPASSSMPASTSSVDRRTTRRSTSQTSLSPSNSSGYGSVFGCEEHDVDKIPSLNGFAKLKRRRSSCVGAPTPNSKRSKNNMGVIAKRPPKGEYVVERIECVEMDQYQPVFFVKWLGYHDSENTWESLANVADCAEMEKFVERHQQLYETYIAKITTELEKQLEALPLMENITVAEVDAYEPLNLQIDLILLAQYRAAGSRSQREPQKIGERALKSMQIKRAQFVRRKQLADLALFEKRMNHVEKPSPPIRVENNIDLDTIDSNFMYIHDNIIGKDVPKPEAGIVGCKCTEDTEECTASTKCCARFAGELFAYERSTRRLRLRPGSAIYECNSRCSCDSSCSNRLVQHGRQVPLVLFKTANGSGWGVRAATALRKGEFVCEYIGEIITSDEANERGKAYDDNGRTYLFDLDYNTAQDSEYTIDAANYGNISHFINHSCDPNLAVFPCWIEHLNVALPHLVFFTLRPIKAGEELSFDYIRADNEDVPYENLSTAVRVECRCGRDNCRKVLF"}, "source": "patent US20120034192A1", "about": "“COMPOSITIONS AND METHODS FOR ENHANCING CELL REPROGRAMMING” (priority 2008, published 2012)", "origin": "cited, not measured here", "target": "methyltransferase SU(VAR)3-9 (Drosophila melanogaster, UniProt P45975)", "details": "in vitro and in vivo; cited from earlier work", "note": "For at least one compound, name, drawing or mass did not settle the structure.", "data": [{"smiles": "CN1C(=O)[C@@]23C[C@]4([C@]56C[C@@]78SS[C@@](CO)(C(=O)N7[C@H]5Nc5ccccc56)N(C)C8=O)c5ccccc5N[C@@H]4N2C(=O)[C@]1(CO)SS3", "note": "[Chaetocin, chaetocin]", "values": [{"measurement": "specificity for histone methyltransferase", "value": "specific for the methyltransferase SU(VAR)3-9 both in vitro and in vivo"}]}]}
